# Measurements published in doi:10.1101/2024.09.05.611512.
# Amino acid sequences for entries named in this document (tags omitted). A change or cut given only in a name is not applied to a line headed by its entry.
# UniProt P07384: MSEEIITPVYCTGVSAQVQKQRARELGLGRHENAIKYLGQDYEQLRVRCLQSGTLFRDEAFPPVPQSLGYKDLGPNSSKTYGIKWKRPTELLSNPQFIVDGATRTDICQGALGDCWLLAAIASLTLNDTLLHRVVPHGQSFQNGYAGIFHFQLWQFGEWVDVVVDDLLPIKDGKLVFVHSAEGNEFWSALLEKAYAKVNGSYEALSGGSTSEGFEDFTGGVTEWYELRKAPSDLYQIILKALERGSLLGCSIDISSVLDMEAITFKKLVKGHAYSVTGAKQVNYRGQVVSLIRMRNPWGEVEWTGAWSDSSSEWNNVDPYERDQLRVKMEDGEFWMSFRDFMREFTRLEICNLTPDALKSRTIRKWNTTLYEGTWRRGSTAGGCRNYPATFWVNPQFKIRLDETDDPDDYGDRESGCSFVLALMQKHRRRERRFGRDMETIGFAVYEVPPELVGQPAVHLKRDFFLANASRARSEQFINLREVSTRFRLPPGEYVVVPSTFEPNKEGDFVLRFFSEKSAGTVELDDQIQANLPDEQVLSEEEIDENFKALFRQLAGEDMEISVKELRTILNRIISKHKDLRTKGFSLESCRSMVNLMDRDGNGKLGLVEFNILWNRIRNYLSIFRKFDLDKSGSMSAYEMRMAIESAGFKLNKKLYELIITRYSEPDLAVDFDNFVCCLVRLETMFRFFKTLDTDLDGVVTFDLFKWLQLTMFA
# No constants are given. Whether binding was seen depends on the method and setting. Some binding calls cover weakened binding; strength is not graded here.
# B1: calpain small subunit, CAPNS1(86–268) (domain or fragment, UniProt P04632 86-268)
# chain: HYSNIEANESEEVRQFRRLFAQLAGDDMEVSATELMNILNKVVTRHPDLKTDGFGIDTCRSMVAVMDSDTTGKLGFEEFKYLWNNIKRWQAIYKQFDTDRSGTICSSELPGAFEAAGFHLNEHLYNMIIRRYSDESGNMDFDNFISCLVRLDAMFRAFKSLDKDGTGQIQVNIQEWLQLTMYS
# Biological target: CAPN1[C115S]-3xFlag-6xHis (human) (UniProt P07384)
# Experiment: co-purification on HisPure beads after co-expression; His-tagged calpain large subunit and CAPNS1 coexpressed in E. coli from PetDuet-1; lysate on HisPure beads, washed with 1.5x TBS + 20 mM imidazole, eluted with 300 mM imidazole
binder,measurement,value
B1,binding,binds
